Test results as given in patent publication US20170106058A1, “PHARMACEUTICAL COMPOSITION AGAINST CHRONIC BACTERIAL INFECTIONS” (Lysando AG, priority 2014, published 2017).
At least one structure is not confirmed: it was looked up by name or label, or the drawing left a doubt.

Tests used:
[1] = tested on: P. aeruginosa PA14 persisters; test: Persister killing assay, isolated persister fraction of P. aeruginosa PA14; type: cell-based; details: 10× and 30× MIC, fraction isolated after 5 h 5× MIC ofloxacin
Experimental: (§1) Persister killing—Planktonic persister cells were isolated from a stationary phase culture as described e.g. in Chen et al., 2011(Chen X, Zhang M, Zhou C, Kallenbach N R, Ren D. 2011. Control of bacterial persister cells by Trp/Arg-containing antimicrobial peptides. Appl Environ Microbiol 77:4878-4885.). Briefly, an overnight culture of P. aeruginosa PA14 and PA1255 (a cystic fibrosis isolate) was inoculated each in 50 ml 1:20 Trypticase Soy Broth (TSB). After 48 h of growth at 37° C., the culture was treated with ofloxacin at a final concentration of 10 μg/ml (5× MIC) for 5 hours at 37° C., while shaking at 200 rpm. The persister cells surviving this antibiotic treatment were isolated by centrifugation (5250 g, 15 min, 4° C.) and the cell pellet was washed twice with 20 mM HEPES buffer. Prior to treatment, cells were resuspended in the same volume of 20 mM HEPES buffer. A persister killing assay was performed as described e.g. by De Groote et al., 2009 (De Groote V N, Verstraeten N, Fauvart M, Kint C I, Verbeeck A M, Beullens S, Cornelis P, Michiels J. 2009. Novel persistence genes in Pseudomonas aeruginosa identified by high-throughput screening. FEMS Microbiol Lett 297:73-79). […] The number of persisters was determined after 72 h incubation to allow complete resuscitation of all surviving persisters. […]

[2] = tested on: P. aeruginosa PAl255 persisters; test: Persister killing assay, isolated persister fraction of P. aeruginosa PAl255 (cystic fibrosis isolate); type: cell-based; details: 10× and 30× MIC, fraction isolated after 5 h 5× MIC ofloxacin
Experimental: as §1

Compound: CC1COc2c(N3CCN(C)CC3)c(F)cc3c(=O)c(C(=O)O)cn1c23 (centres unmarked) [ofloxacin, reference compound]
- killing after further exposure of the isolated persister fraction [1]: lack of killing
- killing after further exposure of the isolated persister fraction [2]: lack of killing
